From patent publication US20230256019A1
No constants are given. Whether binding was seen depends on the method and setting. Some entries that bind do so weakly or less than the wild type.

Sequences of proteins named here, by UniProt entry; tags and fusion partners are left off. Residues count along the entry.
UniProt O76036, residues 22-304: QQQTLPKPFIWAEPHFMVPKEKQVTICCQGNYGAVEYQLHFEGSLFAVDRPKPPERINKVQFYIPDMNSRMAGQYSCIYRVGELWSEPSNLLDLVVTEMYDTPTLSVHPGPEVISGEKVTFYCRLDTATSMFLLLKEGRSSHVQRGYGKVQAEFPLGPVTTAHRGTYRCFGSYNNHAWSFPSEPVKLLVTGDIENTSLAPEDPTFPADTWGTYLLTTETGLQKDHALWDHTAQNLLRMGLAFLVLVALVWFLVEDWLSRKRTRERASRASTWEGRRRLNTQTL

Columns and labels:
[1] = target: NKp46 on highly active NK cells GAIA-102 (human) (UniProt O76036); test: flow cytometry on GAIA-102 NK cells, PE anti-human IgG (FIG. 8 legend)
[2] = target: NKp46 on highly active NK cells GAIA-102 (human) (UniProt O76036); test: flow cytometry on GAIA-102 NK cells, PE anti-human IgG; 350 µg/mL prototype substance, 1 µg/mL Herceptin
[3] = target: NKp46 on highly active NK cells GAIA-102 (human) (UniProt O76036); test: flow cytometry on GAIA-102 NK cells, PE anti-human IgG; 13.3 µg/mL prototype substance, 1 µg/mL antibody drug

binding [1]: binds | binding [2]: binds | binding [3]: binds
B1: prototype substance (pG2-NKp46) (designed binder)
chain: TYKLVINGKTLKGETTTEAVDAATAEKVFKQYANDNGVDGEWTYDDATKTFTVTEKPEVIDASELTPAVTTYKLVINGKTLKGETTTKAVDAETAEKAFKQYANDNGVDGVWTYDDATKTFTVTEGGGGSGGGGSGGGGSSTGSEVQLQQSGPELVKPGASVKISCKTSGYTFTEYTMHWVKQSHGKSLEWIGGISPNIGGTSYNQKFKGKATLTVDKSSSTAYMELRSLTSEDSAVYYCARRGGSFDYWGQGTTLTVSSVEGGSGGSGGSGGSGGVDDIVMTQSPATLSVTPGDRVSLSCRASQSISDYLHWYQQKSHESPRLLIKYASQSISGIPSRFSGSGSGSDFTLSINSVEPEDVGVYYCQNGHSFPLTFGAGTKLELKENLYFQGHHHHHHWSHPQFEKHHHHHH
